This is one part of the list. Many values rest on one well or one pass, so single values are uncertain.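 Cells were imaged in 1,536-well plates, and nuclei stained with an antibody against cleaved PARP were counted against all DNA-stained nuclei to give the apoptosis fraction. Screening doses were chosen to leave most cells alive, and resting and induced cleaved-PARP levels differ strongly between cell lines.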
Assays:
Assay in all cases: cleaved PARP positive nuclei fraction relative to DMSO control; melanoma cells; higher = more apoptosis
Conditions in all cases: library dose: low library concentration; 72 h
501Mel = system: 501Mel
A101D = system: A101D
A2058 = system: A2058
A375 = system: A375
C32 = system: C32
CBRC008 = system: CBRC008 (line from a melanoma biopsy)
CBRC014 = system: CBRC014 (line from a melanoma biopsy)
CBRC016 = system: CBRC016 (line from a melanoma biopsy)
CBRC017 = system: CBRC017 (line from a melanoma biopsy)

Row | Structure (SMILES) | cleaved PARP positive nuclei fraction (501Mel) | cleaved PARP positive nuclei fraction (A101D) | cleaved PARP positive nuclei fraction (A2058) | cleaved PARP positive nuclei fraction (A375) | cleaved PARP positive nuclei fraction (C32) | cleaved PARP positive nuclei fraction (CBRC008) | cleaved PARP positive nuclei fraction (CBRC014) | cleaved PARP positive nuclei fraction (CBRC016) | cleaved PARP positive nuclei fraction (CBRC017)
1 | Cc1cc(Nc2cc(N3CCN(C)CC3)nc(Sc3ccc(NC(=O)C4CC4)cc3)n2)n[nH]1 [Tozasertib] + CS(=O)(=O)c1ccc(C(=O)Nc2ccc(Cl)c(-c3ccccn3)c2)c(Cl)c1 [vismodegib] (first compound 0.006 µM, partner dose 1 µM) | 73.8% | 180% | 287% | 21.5% | 88.4% | 86.7% | 98.7% | 178% | 81.2%
2 | O=C(Nc1cc(C(F)(F)F)cc(C(F)(F)F)c1)c1cc(Cl)ccc1O + CCCS(=O)(=O)Nc1ccc(F)c(C(=O)c2c[nH]c3ncc(Cl)cc23)c1F [PLX4720] (first compound 0.016 µM, partner dose 0.08 µM) | 61.8% | 102% | 46.8% | 149% | 88.6% | 113% | 104% | 155% | 104%
3 | N#CC[C@H](C1CCCC1)n1cc(-c2ncnc3[nH]ccc23)cn1 [ruxolitinib] + O=C(Nc1cc(C(F)(F)F)cc(C(F)(F)F)c1)c1cc(Cl)ccc1O [IMD0354] (first compound 1 µM, partner dose 0.016 µM) | 102% | 36% | 129% | 251% | 61.9% | 186% | 94.2% | 154% | 99.2%
4 | O=c1[nH]nc(Sc2ncc([N+](=O)[O-])s2)n1-c1ccc2c(c1)OCCO2 + CN1CCN(c2ccc3nc(-c4c(N)c5c(F)cccc5[nH]c4=O)[nH]c3c2)CC1 [Dovitinib] (first compound 0.2 µM, partner dose 0.1 µM) | 72.4% | 243% | 50.4% | 93.2% | 82.8% | 66.2% | 97% | 133% | 88.9%
5 | N#CC[C@H](C1CCCC1)n1cc(-c2ncnc3[nH]ccc23)cn1 [ruxolitinib] + O=c1[nH]nc(Sc2ncc([N+](=O)[O-])s2)n1-c1ccc2c(c1)OCCO2 [BI78D3] (first compound 1 µM, partner dose 0.2 µM) | 68.6% | 39.1% | 64.4% | 24.5% | 160% | 156% | 91.5% | 60.3% | 91%
6 | CCCCCCCCCCCCCCCCCCOP(=O)([O-])OC1CC[N+](C)(C)CC1 [Perifosine] + O=C(O)[C@@H]1[O][Sb](=[O])([O][Sb]2(=[O])[O][C@H]([C@H](O)CO)[C@H](O)[C@H](C(=O)O)[O]2)[O][C@H]([C@H](O)CO)[C@@H]1O [stibogluconate] (first compound 0.4 µM, partner dose 2 µM) | 75.3% | 85.8% | 95.5% | 46.9% | 89.2% | 56.6% | 98.3% | 128% | 93.8%
7 | O=C(/C=C/c1cccnc1)NCCCCC1CCN(C(=O)c2ccccc2)CC1 + CS(=O)(=O)c1ccc(C(=O)Nc2ccc(Cl)c(-c3ccccn3)c2)c(Cl)c1 [vismodegib] (first compound 0.01 µM, partner dose 1 µM) | 141% | 133% | 248% | 272% | 65.9% | 5140% | 120% | 1460% | 535%
8 | CCCCCCCCCCCCCCCCCCOP(=O)([O-])OC1CC[N+](C)(C)CC1 [Perifosine] + COCC[n+]1c2c(n(Cc3cnccn3)c1C)C(=O)c1ccccc1C2=O [YM155] (first compound 0.4 µM, partner dose 0.0004 µM) | 73.7% | 68.4% | 81.5% | 70% | 85.7% | 408% | 107% | 76.7% | 182%
9 | Cc1ccc(Nc2nccc(N(C)c3ccc4c(C)n(C)nc4c3)n2)cc1S(N)(=O)=O [Pazopanib] + C[C@]1(O)C[C@@H](c2nc(-c3ccc4ccc(-c5ccccc5)nc4c3)c3c(N)nccn32)C1 [OSI906] (first compound 0.4 µM, partner dose 0.4 µM) | 170% | 105% | 181% | 191% | 123% | 90.6% | 119% | 133% | 96.4%
10 | O=C(/C=C/c1cccnc1)NCCCCC1CCN(C(=O)c2ccccc2)CC1 + Cn1c(=O)n(-c2ccc(C(C)(C)C#N)cc2)c2c3cc(-c4cnc5ccccc5c4)ccc3ncc21 [NVP-BEZ235] (first compound 0.01 µM, partner dose 0.004 µM) | 77% | 173% | 152% | 54.5% | 75.3% | 1680% | 102% | 987% | 400%
11 | CC[C@]1(O)C[C@H]2CN(CCc3c([nH]c4ccccc34)[C@@](C(=O)OC)(c3cc4c(cc3OC)N(C=O)[C@H]3[C@@](O)(C(=O)OC)[C@H](OC(C)=O)[C@]5(CC)C=CCN6CC[C@]43[C@@H]65)C2)C1 [vincristine] + Cc1cn(-c2cc(NC(=O)c3ccc(C)c(Nc4nccc(-c5cccnc5)n4)c3)cc(C(F)(F)F)c2)cn1 [nilotinib] (first compound 0.0001 µM, partner dose 0.2 µM) | 173% | 195% | 1360% | 330% | 96.5% | 395% | 116% | 264% | 124%
12 | O=C(/C=C/c1cccnc1)NCCCCC1CCN(C(=O)c2ccccc2)CC1 + Cn1nnc2c(C(N)=O)ncn2c1=O [temozolomide] (first compound 0.01 µM, partner dose 2 µM) | 100% | 58.3% | 57.9% | 173% | 84.7% | 3180% | 91.5% | 568% | 667%
13 | O=C(Nc1cc(C(F)(F)F)cc(C(F)(F)F)c1)c1cc(Cl)ccc1O + C[C@@H](Oc1cc(-c2cnn(C3CCNCC3)c2)cnc1N)c1c(Cl)ccc(F)c1Cl [Crizotinib] (first compound 0.016 µM, partner dose 0.2 µM) | 61.7% | 40.6% | 114% | 53.4% | 79.3% | 192% | 94.9% | 78% | 77.5%
14 | Cc1cn(-c2cc(NC(=O)c3ccc(C)c(Nc4nccc(-c5cccnc5)n4)c3)cc(C(F)(F)F)c2)cn1 [nilotinib] + NC1(c2ccc(-c3nc4ccn5c(=O)[nH]nc5c4cc3-c3ccccc3)cc2)CCC1 [MK2206] (first compound 0.2 µM, partner dose 0.4 µM) | 63.5% | 49.4% | 172% | 50.5% | 83.3% | 31.4% | 67.7% | 74.3% | 76.9%
15 | O=C(/C=C/c1cccnc1)NCCCCC1CCN(C(=O)c2ccccc2)CC1 + CS(=O)(=O)CCNCc1ccc(-c2ccc3ncnc(Nc4ccc(OCc5cccc(F)c5)c(Cl)c4)c3c2)o1 [lapatinib] (first compound 0.01 µM, partner dose 0.8 µM) | 119% | 99.8% | 215% | 32.5% | 75.4% | 2670% | 115% | 1670% | 634%
16 | O=c1[nH]nc(Sc2ncc([N+](=O)[O-])s2)n1-c1ccc2c(c1)OCCO2 + Nc1cccc2c1CN(C1CCC(=O)NC1=O)C2=O [lenalidomide] (first compound 0.2 µM, partner dose 1 µM) | 83.2% | 95.3% | 76% | 114% | 76.7% | 48.7% | 105% | 150% | 124%
17 | O=C(Nc1cc(C(F)(F)F)cc(C(F)(F)F)c1)c1cc(Cl)ccc1O + Nc1cccc2c1CN(C1CCC(=O)NC1=O)C2=O [lenalidomide] (first compound 0.016 µM, partner dose 1 µM) | 79.5% | 75.5% | 62.7% | 64.4% | 64.3% | 71.8% | 103% | 113% | 82%
18 | Cc1ccc(Nc2nccc(N(C)c3ccc4c(C)n(C)nc4c3)n2)cc1S(N)(=O)=O [Pazopanib] + Nc1ncn([C@H]2C[C@H](O)[C@@H](CO)O2)c(=O)n1 [decitabine] (first compound 0.4 µM, partner dose 0.1 µM) | 96.6% | 91.9% | 206% | 235% | 92.6% | 112% | 197% | 91.4% | 81.2%

Single records, from the list above. Values in the order: cleaved PARP positive nuclei fraction (501Mel) | cleaved PARP positive nuclei fraction (A101D) | cleaved PARP positive nuclei fraction (A2058) | cleaved PARP positive nuclei fraction (A375) | cleaved PARP positive nuclei fraction (C32) | cleaved PARP positive nuclei fraction (CBRC008) | cleaved PARP positive nuclei fraction (CBRC014) | cleaved PARP positive nuclei fraction (CBRC016) | cleaved PARP positive nuclei fraction (CBRC017)
Cc1ccc(Nc2nccc(N(C)c3ccc4c(C)n(C)nc4c3)n2)cc1S(N)(=O)=O [Pazopanib] + C[C@]1(O)C[C@@H](c2nc(-c3ccc4ccc(-c5ccccc5)nc4c3)c3c(N)nccn32)C1 [OSI906] (first compound 0.4 µM, partner dose 0.4 µM) reads 170% | 105% | 181% | 191% | 123% | 90.6% | 119% | 133% | 96.4%
O=C(Nc1cc(C(F)(F)F)cc(C(F)(F)F)c1)c1cc(Cl)ccc1O + Nc1cccc2c1CN(C1CCC(=O)NC1=O)C2=O [lenalidomide] (first compound 0.016 µM, partner dose 1 µM) reads 79.5% | 75.5% | 62.7% | 64.4% | 64.3% | 71.8% | 103% | 113% | 82%

Reference: the supplement of paper PMC4604168 (melanoma cell lines)
